# Laboratory results taken from the supplement of paper PMC8728848.
# The list shows a part of the results.
# How the values were obtained:
# Assay in all cases: glycan array binding signal (z-score within array); higher = stronger binding
# Conditions in all cases: glycan notation: IUPAC condensed, linker removed
# Kdn(a2-3)Gal(b1-4)Glc = molecular target: Kdn(a2-3)Gal(b1-4)Glc
# Summary of the method: (§1)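 Negative Z-scores can be read as non-binding. The Z-score is calculated within each array and then averaged across arrays of one protein sequence at different concentrations or buffers and across linkers. Arrays, 3228 in all, were curated from the Consortium for Functional Glycomics database and kept only where the protein sequence was available.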
# Kdn(a2-3)Gal(b1-4)GlcNAc = molecular target: Kdn(a2-3)Gal(b1-4)GlcNAc
# Summary of the method: as §1
# [1] = molecular target: Kdn(a2-3)Gal(b1-4)[Fuc(a1-3)]GlcNAc
# Summary of the method: as §1
# Kdn(a2-6)Gal(b1-4)GlcNAc = molecular target: Kdn(a2-6)Gal(b1-4)GlcNAc
# Summary of the method: as §1
# [2] = molecular target: Man(a1-2)Man(a1-2)Man(a1-3)Man
# Summary of the method: as §1
# [3] = molecular target: Man(a1-2)Man(a1-2)Man(a1-6)[Man(a1-3)]Man
# Summary of the method: as §1
# Man(a1-2)Man(a1-3)Man = molecular target: Man(a1-2)Man(a1-3)Man
# Summary of the method: as §1
# [4] = molecular target: Man(a1-2)Man(a1-3)[Man(a1-2)Man(a1-6)]Man
# Summary of the method: as §1
# [5] = molecular target: Man(a1-2)Man(a1-3)[Man(a1-2)Man(a1-6)]Man(a1-6)[Man(a1-2)Man(a1-2)Man(a1-3)]Man
# Summary of the method: as §1
# [6] = molecular target: Man(a1-2)Man(a1-3)[Man(a1-2)Man(a1-6)]Man(a1-6)[Man(a1-2)Man(a1-2)Man(a1-3)]Man(b1-4)GlcNAc(b1-4)GlcNAc
# Summary of the method: as §1
# [7] = molecular target: Man(a1-2)Man(a1-3)[Man(a1-6)]Man(a1-6)[Man(a1-2)Man(a1-3)]Man(b1-4)GlcNAc(b1-4)GlcNAc
# Summary of the method: as §1
# [8] = molecular target: Man(a1-2)Man(a1-6)[Man(a1-3)]Man(a1-6)[Man(a1-2)Man(a1-2)Man(a1-3)]Man
# Summary of the method: as §1
# [9] = molecular target: Man(a1-2)Man(a1-6)[Man(a1-3)]Man(a1-6)[Man(a1-2)Man(a1-2)Man(a1-3)]Man(b1-4)GlcNAc(b1-4)GlcNAc
# Summary of the method: as §1
# Man(a1-3)[Man(a1-6)]Man = molecular target: Man(a1-3)[Man(a1-6)]Man
# Summary of the method: as §1
# [10] = molecular target: Man(a1-3)[Man(a1-6)]Man(a1-6)[Man(a1-2)Man(a1-3)]Man(b1-4)GlcNAc(b1-4)GlcNAc
# Summary of the method: as §1
# [11] = molecular target: Man(a1-3)[Man(a1-6)]Man(a1-6)[Man(a1-3)]Man
# Summary of the method: as §1
# [12] = molecular target: Man(a1-3)[Man(a1-6)]Man(a1-6)[Man(a1-3)]Man(b1-4)GlcNAc(b1-4)GlcNAc
# Summary of the method: as §1
# [13] = molecular target: Man(a1-3)[Man(a1-6)]Man(b1-4)GlcNAc(b1-4)GlcNAc
# Summary of the method: as §1
# [14] = molecular target: Man(a1-3)[Man(a1-6)]Man(b1-4)GlcNAc(b1-4)[Fuc(a1-6)]GlcNAc
# Summary of the method: as §1
# Man(a1-6)Man = molecular target: Man(a1-6)Man
# Summary of the method: as §1
# Man(b1-4)GlcNAc = molecular target: Man(b1-4)GlcNAc
# Summary of the method: as §1
# MurNAc(b1-4)GlcNAc = molecular target: MurNAc(b1-4)GlcNAc
# Summary of the method: as §1
# Neu5Ac(a2-3)Gal = molecular target: Neu5Ac(a2-3)Gal
# Summary of the method: as §1
# [15] = molecular target: Neu5Ac(a2-3)Gal(b1-3)GalNAc
# Summary of the method: as §1
# [16] = molecular target: Neu5Ac(a2-3)Gal(b1-3)GalNAc(b1-3)Gal(a1-4)Gal(b1-4)Glc
# Summary of the method: as §1
# [17] = molecular target: Neu5Ac(a2-3)Gal(b1-3)GalNAc(b1-4)[Neu5Ac(a2-3)]Gal(b1-4)Glc
# Summary of the method: as §1
# [18] = molecular target: Neu5Ac(a2-3)Gal(b1-3)GalNAc(b1-4)[Neu5Ac(a2-8)Neu5Ac(a2-3)]Gal(b1-4)Glc
# Summary of the method: as §1
# [19] = molecular target: Neu5Ac(a2-3)Gal(b1-3)GalNAc6S
# Summary of the method: as §1
# [20] = molecular target: Neu5Ac(a2-3)Gal(b1-3)GlcNAc
# Summary of the method: as §1
# [21] = molecular target: Neu5Ac(a2-3)Gal(b1-3)GlcNAc(b1-2)Man
# Summary of the method: as §1
# [22] = molecular target: Neu5Ac(a2-3)Gal(b1-3)GlcNAc(b1-2)Man(a1-3)[GlcNAc(b1-4)][Neu5Ac(a2-3)Gal(b1-3)GlcNAc(b1-2)Man(a1-6)]Man(b1-4)GlcNAc(b1-4)GlcNAc
# Summary of the method: as §1
# [23] = molecular target: Neu5Ac(a2-3)Gal(b1-3)GlcNAc(b1-2)Man(a1-3)[Neu5Ac(a2-3)Gal(b1-3)GlcNAc(b1-2)Man(a1-6)]Man(b1-4)GlcNAc(b1-4)GlcNAc
# Summary of the method: as §1
# [24] = molecular target: Neu5Ac(a2-3)Gal(b1-3)GlcNAc(b1-3)Gal(b1-3)GlcNAc
# Summary of the method: as §1
# [25] = molecular target: Neu5Ac(a2-3)Gal(b1-3)GlcNAc(b1-3)Gal(b1-4)GlcNAc
# Summary of the method: as §1
# [26] = molecular target: Neu5Ac(a2-3)Gal(b1-3)GlcNAc(b1-3)GalNAc
# Summary of the method: as §1
# [27] = molecular target: Neu5Ac(a2-3)Gal(b1-3)GlcNAc(b1-4)Gal(b1-4)Glc
# Summary of the method: as §1
# [28] = molecular target: Neu5Ac(a2-3)Gal(b1-3)GlcNAc(b1-6)GalNAc
# Summary of the method: as §1
# [29] = molecular target: Neu5Ac(a2-3)Gal(b1-3)GlcNAc6S
# Summary of the method: as §1
binder,measurement,setting,value
RobpsCRA (Robinia pseudoacacia) (protein) IKGGYWYSGSGLAVSDINPSHFTHLFCAFADLDPNTNKLTISSSNAAAFSTFTQTVRAKNPSVKTLLSIGGGGGRALAAVFANMASQASRRKSFIDSSIQLARRNNFHGLDLDWEYPSSDIDKTNFASLIREWRAAVATESSTSGTPALLLSAAVGGSDQITPLKYYPGEAIANNLDWVNVMTYDLYTSDSYPTLTQPPAPLFYPRGIFSADEGITKWIQSGVPESKLALGLPFYGFKWRLSDPNNHGLFAPATQGLGAVKYKDIVNTGGQVEFDSTYVTNYCFKGTDWYGYDDTQSISAKVAYAKQRGLFGYFAWHIEQDSNWALS,glycan array binding signal (z-score),Kdn(a2-3)Gal(b1-4)Glc,-0.758
same,glycan array binding signal (z-score),Kdn(a2-3)Gal(b1-4)GlcNAc,-0.696
same,glycan array binding signal (z-score),[1],0.161
same,glycan array binding signal (z-score),Kdn(a2-6)Gal(b1-4)GlcNAc,-0.742
same,glycan array binding signal (z-score),[2],-0.644
same,glycan array binding signal (z-score),[3],-0.465
same,glycan array binding signal (z-score),Man(a1-2)Man(a1-3)Man,-0.397
same,glycan array binding signal (z-score),[4],-0.812
same,glycan array binding signal (z-score),[5],0.574
same,glycan array binding signal (z-score),[6],-0.222
same,glycan array binding signal (z-score),[7],0.232
same,glycan array binding signal (z-score),[8],-0.566
same,glycan array binding signal (z-score),[9],-0.336
same,glycan array binding signal (z-score),Man(a1-3)[Man(a1-6)]Man,-0.303
same,glycan array binding signal (z-score),[10],-0.043
same,glycan array binding signal (z-score),[11],-0.085
same,glycan array binding signal (z-score),[12],-0.146
same,glycan array binding signal (z-score),[13],0.109
same,glycan array binding signal (z-score),[14],0.253
same,glycan array binding signal (z-score),Man(a1-6)Man,-0.199
same,glycan array binding signal (z-score),Man(b1-4)GlcNAc,-0.315
same,glycan array binding signal (z-score),MurNAc(b1-4)GlcNAc,-0.389
same,glycan array binding signal (z-score),Neu5Ac(a2-3)Gal,-0.218
same,glycan array binding signal (z-score),[15],0.289
same,glycan array binding signal (z-score),[16],-0.405
same,glycan array binding signal (z-score),[17],-0.151
same,glycan array binding signal (z-score),[18],-0.829
same,glycan array binding signal (z-score),[19],0.285
same,glycan array binding signal (z-score),[20],0.156
same,glycan array binding signal (z-score),[21],-0.298
same,glycan array binding signal (z-score),[22],-0.189
same,glycan array binding signal (z-score),[23],-0.877
same,glycan array binding signal (z-score),[24],0.075
same,glycan array binding signal (z-score),[25],-0.578
same,glycan array binding signal (z-score),[26],-0.216
same,glycan array binding signal (z-score),[27],-0.249
same,glycan array binding signal (z-score),[28],0.248
same,glycan array binding signal (z-score),[29],0.702

# 3 entries from above, with bars between the fields:
binder | measurement | setting | value
RobpsCRA (Robinia pseudoacacia) (protein) IKGGYWYSGSGLAVSDINPSHFTHLFCAFADLDPNTNKLTISSSNAAAFSTFTQTVRAKNPSVKTLLSIGGGGGRALAAVFANMASQASRRKSFIDSSIQLARRNNFHGLDLDWEYPSSDIDKTNFASLIREWRAAVATESSTSGTPALLLSAAVGGSDQITPLKYYPGEAIANNLDWVNVMTYDLYTSDSYPTLTQPPAPLFYPRGIFSADEGITKWIQSGVPESKLALGLPFYGFKWRLSDPNNHGLFAPATQGLGAVKYKDIVNTGGQVEFDSTYVTNYCFKGTDWYGYDDTQSISAKVAYAKQRGLFGYFAWHIEQDSNWALS | glycan array binding signal (z-score) | [8] | -0.566
same | glycan array binding signal (z-score) | [10] | -0.043
same | glycan array binding signal (z-score) | [12] | -0.146
